Results published in PubChem BioAssay AID2685 (National Center for Advancing Translational Sciences (NCATS), 2010).
This is one part of the list. Further columns of the screen follow, without active or inactive calls. The list favours compounds with an active or inconclusive main result. Potencies come from curve fits of mixed quality, noted in brackets.

Experiment: qHTS Assay for Lipid Storage Modulators in Drosophila S3 Cells;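 on cell number change: cells counted by Cell Tracker Red CMTPX staining in the red channel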
Details: BODIPY lipid droplet fluorescence, 18-24 h; for cell number change: measured here: cell count max response, cells fed with added oleic acid
Method in brief: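 Laser-scanning cytometry quantifies lipid droplet accumulation (500–530 nm total intensity; droplet/cell object ratio) in oleic acid-fed (400 uM added) Drosophila S3 cells treated with a concentration series. 20 uM Triacsin C defined 100% inhibition.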

[1] = measured here: lipid fluorescence (Fed channel) AC50, cells fed with added oleic acid
[2] = measured here: cell number channel AC50, cells fed with added oleic acid

| Compound | cell number change | AC50 [1] | AC50 [2] |
| --- | --- | --- | --- |
| CCOC(=O)C1=C(C)NC(SCC(=O)OC)=C(C#N)C1c1ccc(C(=O)OC)cc1 (stereo not given) | -9.19% | 10.3 µM [falling, partial curve, poor fit] | – |
| CC(NC(=O)CCNC(=O)c1ccco1)c1ccc(F)cc1 (stereo not given) | 13.5% | – | – |
| COc1ccccc1C(=O)CSc1ccccn1 | 16.3% | 8.91 µM [rising, partial curve, poor fit] | – |
| COc1ccc(C)cc1S(=O)(=O)N(CC(=O)Nc1cccc([N+](=O)[O-])c1)c1ccccc1 | 3.8% | – | – |
| Cc1ccc(NC(=O)C(c2ccccc2)N2CCN(CC(=O)NC3CC3)CC2)cc1Cl (stereo not given) | 8.96% | 0.82 µM [rising, full curve, poor fit] | – |
| COc1ccccc1OCC(=O)Nc1cc(Cl)ccc1N1CCCCC1 | 21.1% | 0.366 µM [rising, partial curve] | 0.259 µM [rising, full curve, poor fit] |
| Cc1ccccc1CN1CCN(S(=O)(=O)c2cccs2)CC1 | 6.8% | – | 2.91 µM [rising, single point] |
| Cc1nn(C(C)C(=O)NCC2CCCO2)c(=O)c2cc3occc3n12 (stereo not given) | -44.4% | – | 1.16 µM [falling, full curve, poor fit] |
| COc1ccc(N=C2SC(CC(=O)Nc3ccccc3)C(=O)N2CC2CCCO2)cc1 (stereo not given) | – | – | 0.291 µM [rising, full curve] |
| O=C(CSc1n[nH]c(=O)[nH]c1=O)Nc1ccc(C(=O)O)cc1 | -5.23% | – | 0.92 µM [falling, full curve] |
| Cc1cc(Cl)ccc1NNC(=O)c1c(C)noc1C | -51.5% | – | 29.1 µM [falling, single point] |
| Nc1nc(Nc2ccc(Cl)cc2Cl)nc(C(F)(F)F)n1 | – | 2.31 µM [rising, partial curve] | 2.91 µM [rising, partial curve] |
| Cc1nc2ccc(OC(=O)c3ccccc3)cc2s1 | -23.4% | – | – |
| COc1cc(/C=C/C(=O)O)cc(S(=O)(=O)NC2CC2)c1OC | -11.4% | 0.00461 µM [falling, full curve, poor fit] | – |
| C/C(=N\NC(=O)c1cc(C)nc2ccccc12)c1ccncc1 | 8.59% | 2.06 µM [rising, partial curve, poor fit] | – |
| Cc1cccc(C)c1-n1c(C)cc(/C=N\Nc2ccc([N+](=O)[O-])cn2)c1C | – | 29.1 µM [falling, single point] | – |
| Cc1oc(-c2ccc(Cl)cc2)nc1CS(=O)CC(=O)NCc1ccccc1 (stereo not given) | -13.5% | 20.6 µM [rising, single point] | – |
| O=C(c1ccccc1)c1ccc(OC(=O)N2CCCC2)cc1 | -15.5% | 5.17 µM [falling, single point] | – |
| COc1ccc(NC(=O)c2ccco2)cc1NC(=O)c1ccccc1 | 10.9% | 1.84 µM [rising, full curve, poor fit] | – |
| Cc1ccc(S(=O)(=O)Nc2ccccc2C(=O)NCC2CCCO2)cc1 (stereo not given) | – | – | 2.59 µM [rising, partial curve] |

| Compound | cell number change | AC50 [1] | AC50 [2] |
| --- | --- | --- | --- |
| O=C(O)Cc1c(C(=O)O)nnn1-c1cccc(C(F)(F)F)c1 | -12.8% | 13 µM [falling, partial curve, poor fit] | – |
| Cc1nc2ccc(S(=O)(=O)NCC(=O)N3CCOCC3)cc2s1 | 7.9% | 0.326 µM [falling, full curve] | – |
| CCC1CCCCN1S(=O)(=O)c1ccc(C(=O)Nc2nnc(-c3ccccc3Cl)o2)cc1 (stereo not given) | -16.2% | 16.4 µM [falling, single point] | – |
| Cc1cc2ncc(Cl)nc2cc1C | -3.72% | 0.461 µM [rising, partial curve, poor fit] | – |
| O=C1CSC(c2cn(-c3ccccc3)nc2-c2cc3ccccc3oc2=O)N1Cc1cccnc1 (stereo not given) | 188% | 0.411 µM [rising, full curve, poor fit] | 1.84 µM [rising, partial curve] |
| O=C(Oc1ccc(/C=N/O)cc1)c1ccccc1 | 17.7% | 0.13 µM [falling, full curve, poor fit] | – |
| COc1cccc(C2=NO[C@@H]3C(=O)N(Cc4ccccc4)C(=O)[C@H]23)c1OC | -15.8% | 1.46 µM [rising, partial curve] | 0.366 µM [falling, full curve, poor fit] |
| COc1ccc(C(=O)CSC#N)cc1OC | -19.1% | 29.1 µM [falling, single point] | – |
| O=C(Cc1cccs1)Nc1ccc(F)c(F)c1 | 22% | 0.0517 µM [rising, full curve, poor fit] | – |
| COn1c(SC(C)C)nc2ccccc2c1=O | 37.4% | – | 1.3 µM [rising, single point] |
| CCOc1ccc(N2CC(=O)Nc3ccccc3NCC2=O)cc1 | -18.1% | – | 4.61 µM [falling, partial curve, poor fit] |
| O=C(c1nc2ccccn2c1CN1CCCC(c2nc3ccccc3o2)C1)N1CCCC1 (stereo not given) | – | 6.51 µM [rising, single point] | – |
| O=[N+]([O-])c1cccc(N=Cc2sc3ccccc3c2O)c1 | -16.7% | 0.058 µM [falling, full curve] | 0.0651 µM [falling, full curve] |
| Cc1cc(Oc2ccc(=O)n(C)n2)nc(SCCOc2ccccc2)n1 | 10.5% | 9.2 µM [rising, partial curve, poor fit] | – |
| Cc1nn(CC(O)CN2c3ccccc3Sc3ccccc32)c(C)c1Br (stereo not given) | -80% | 20.6 µM [falling, partial curve] | 20.6 µM [falling, partial curve] |
| Cc1ccc2oc(=O)cc(CN3CC(C)OC(C)C3)c2c1 (stereo not given) | 13.1% | – | – |
| O=C(N/N=C/c1ccccc1)c1ccc(-c2ccccc2)cc1 | – | 0.058 µM [rising, full curve, poor fit] | – |
| CCc1ccccc1NC(=O)Nc1ccc(F)cc1F | 6.1% | – | – |
| O=C1C=C(NNC(=O)c2ccccc2Br)CCC1 | 11.8% | 23.1 µM [rising, single point] | – |
| Cc1ccc(N(CC(=O)Nc2ccc(F)c(Cl)c2)S(=O)(=O)c2c(C)noc2C)cc1 | -26.9% | 0.164 µM [rising, full curve, poor fit] | – |

As entered above:
CCC1CCCCN1S(=O)(=O)c1ccc(C(=O)Nc2nnc(-c3ccccc3Cl)o2)cc1 (stereo not given) | cell number change: -16.2%
O=[N+]([O-])c1cccc(N=Cc2sc3ccccc3c2O)c1 | AC50 [2]: 0.0651 µM [falling, full curve]
